{"source": "the supplement of paper PMC8090911", "note": "Counter-ions that a name gives are not always drawn. The list shows a part of the results. Many values rest on one well or one pass, so single values are uncertain. Where a SMILES comes first, the peptide text is derived from it. [ ]: non-standard residue; d: D form. The star is where a group is joined. Sta = CC(C)C[C@H](N)[C@@H](O)CC(=O)O; Isovaleryl = CC(C)CC(=O)*"}
{"system": "p95-ErbB2-MCF7", "assay": "perinuclear lysosome accumulation (PNLA, size of LAMP2 puncta), robust Z-score vs plate median; higher = more perinuclear lysosome accumulation (reversal of invasive lysosome distribution)", "details": "5 µM; 24 h"}
{"smiles": "CN(C)CCOC1=Cc2ccccc2Sc2ccc(Cl)cc21", "note": "[Zotepine]", "perinuclear lysosome accumulation": -0.737}
{"smiles": "CCN(Cc1ccncc1)C(=O)C(CO)c1ccccc1", "note": "(centres undefined) [Tropicamide]", "perinuclear lysosome accumulation": 0.147}
{"smiles": "O=C(NCCNCC(O)COc1ccc(O)cc1)N1CCOCC1", "note": "(centres undefined) [Xamoterol hemifumarate]", "perinuclear lysosome accumulation": -0.0805}
{"smiles": "CCN(CC)CC#CCOC(=O)C(O)(c1ccccc1)C1CCCCC1", "note": "(centres undefined) [Oxybutynin chloride]", "perinuclear lysosome accumulation": -0.717}
{"smiles": "Cc1ncc([N+](=O)[O-])n1CCO", "note": "[Metronidazole]", "perinuclear lysosome accumulation": 0.000761}
{"smiles": "OC(CCN1CCCCC1)(c1ccccc1)C1CC2C=CC1C2", "note": "(centres undefined) [Biperiden hydrochloride]", "perinuclear lysosome accumulation": -2.55}
{"smiles": "CN1C2CCCC1CC(NC(=O)c1nn(C)c3ccccc13)C2", "note": "(centres undefined) [Granisetron]", "perinuclear lysosome accumulation": 1.01}
{"smiles": "CC(C)N1CCN(c2ccc(OCC3COC(Cn4cncn4)(c4ccc(Cl)cc4Cl)O3)cc2)CC1", "note": "(centres undefined) [Terconazole]", "perinuclear lysosome accumulation": 3.2}
{"smiles": "O=C(CCCN1CC=C(n2c(=O)[nH]c3ccccc32)CC1)c1ccc(F)cc1", "note": "[Droperidol]", "perinuclear lysosome accumulation": -0.0633}
{"smiles": "CCN(CC)CCNC(=O)c1cc(S(C)(=O)=O)ccc1OC", "note": "[Tiapride hydrochloride]", "perinuclear lysosome accumulation": 2.52}
{"smiles": "C#CCN(C)Cc1ccccc1", "note": "[Pargyline hydrochloride]", "perinuclear lysosome accumulation": -0.118}
{"smiles": "COc1ccc2cc(CCC(C)=O)ccc2c1", "note": "[Nabumetone]", "perinuclear lysosome accumulation": 0.175}
{"smiles": "CC(=O)N[C@@H](CC(=O)N[C@@H](CCC(=O)O)C(=O)O)C(=O)O", "note": "[Spaglumic acid]", "perinuclear lysosome accumulation": -1.8}
{"smiles": "Cc1ccc(S(=O)(=O)NC(=O)NN2CC3CCCC3C2)cc1", "note": "(centres undefined) [Gliclazide]", "perinuclear lysosome accumulation": 0.478}
{"smiles": "COc1cc2nc(N3CCN(C(=O)c4ccco4)CC3)nc(N)c2cc1OC", "note": "[Prazosin hydrochloride]", "perinuclear lysosome accumulation": 0.118}
{"smiles": "CCn1cc(C(=O)O)c(=O)c2cnc(N3CCNCC3)nc21", "note": "[Pipemidic acid]", "perinuclear lysosome accumulation": 0.41}
{"smiles": "COc1nc(C)nc(Cl)c1NC1=NCCN1", "note": "[Moxonidine]", "perinuclear lysosome accumulation": 0.183}
{"smiles": "Clc1ccc(C(Cn2ccnc2)OCc2c(Cl)cccc2Cl)c(Cl)c1", "note": "(centres undefined) [Isoconazole]", "perinuclear lysosome accumulation": -0.759}
{"smiles": "NC(=O)N1c2ccccc2C=Cc2ccccc21", "note": "[Carbamazepine]", "perinuclear lysosome accumulation": -0.0856}
{"smiles": "CN(C)CCN(Cc1cccs1)c1ccccn1", "note": "[Methapyrilene hydrochloride]", "perinuclear lysosome accumulation": -0.0761}
{"smiles": "COc1c(O[C@@H]2O[C@H](CO)[C@@H](O)[C@H](O)[C@H]2O)cc2c(c1OC)-c1ccc(SC)c(=O)cc1[C@@H](NC(C)=O)CC2", "note": "[Thiocolchicoside]", "perinuclear lysosome accumulation": -0.562}
{"smiles": "O=C(Cn1ccnc1[N+](=O)[O-])NCCO", "note": "[Etanidazole]", "perinuclear lysosome accumulation": 1.01}
{"smiles": "CO[C@H]1/C=C/O[C@@]2(C)Oc3c(C)c(O)c4c(c3C2=O)C2=NC3(CCN(CC(C)C)CC3)NC2=C(NC(=O)/C(C)=C\\C=C\\[C@H](C)[C@H](O)[C@@H](C)[C@@H](O)[C@@H](C)[C@H](OC(C)=O)[C@@H]1C)C4=O", "note": "[Rifabutin]", "perinuclear lysosome accumulation": 1.29}
{"smiles": "Nc1nc(=S)c2ncn([C@@H]3O[C@H](CO)[C@@H](O)[C@H]3O)c2[nH]1", "note": "[Thioguanosine]", "perinuclear lysosome accumulation": 0.896}
{"smiles": "CC(C)NCC(O)COc1ccc(COCCOC(C)C)cc1", "note": "(centres undefined) [Bisoprolol fumarate]", "perinuclear lysosome accumulation": -0.352}
{"smiles": "Nc1nc(=O)c2nc(CNc3ccc(C(=O)N[C@@H](CCC(=O)O)C(=O)O)cc3)cnc2[nH]1", "note": "[Folic acid]", "perinuclear lysosome accumulation": 0.667}
{"smiles": "CC(=O)N[C@@H](CC(C)C)C(=O)O", "note": "[N-Acetyl-L-leucine]", "perinuclear lysosome accumulation": 0.21}
{"smiles": "CC[C@H]1OC(=O)[C@H](C)[C@@H](O[C@H]2C[C@@](C)(OC)[C@@H](O)[C@H](C)O2)[C@H](C)[C@@H](O[C@@H]2O[C@H](C)C[C@H](N(C)C)[C@H]2O)[C@](C)(O)C[C@@H](C)/C(=N\\OCOCCOC)[C@H](C)[C@@H](O)[C@]1(C)O", "note": "[Roxithromycin]", "perinuclear lysosome accumulation": 1.55}
{"smiles": "Nc1nc(F)nc2c1ncn2[C@@H]1O[C@H](CO)[C@@H](O)[C@@H]1O", "note": "[Fludarabine]", "perinuclear lysosome accumulation": 0.492}
{"smiles": "CCOC(=O)OC(C)OC(=O)[C@@H]1N2C(=O)[C@@H](NC(=O)[C@H](N)c3ccccc3)[C@H]2SC1(C)C", "note": "(some centres undefined) [Bacampicillin hydrochloride]", "perinuclear lysosome accumulation": 0.721}
{"smiles": "CCOC(=O)[C@H](CCc1ccccc1)N[C@H]1CCc2ccccc2N(CC(=O)O)C1=O", "note": "[Benazepril HCl]", "perinuclear lysosome accumulation": -0.000183}
{"smiles": "COC1=C(OC)C(=O)C(CCCCCCCCCCO)=C(C)C1=O", "note": "[Idebenone]", "perinuclear lysosome accumulation": -0.241}
{"smiles": "NCCCC[C@H](N[C@@H](CCc1ccccc1)C(=O)O)C(=O)N1CCC[C@H]1C(=O)O", "note": "[Lisinopril]", "perinuclear lysosome accumulation": -2.12}
{"smiles": "O=C(Nc1cccc2c(=O)cc(-c3nnn[nH]3)oc12)c1ccc(OCCCCc2ccccc2)cc1", "note": "[Pranlukast]", "perinuclear lysosome accumulation": 1.25}
{"smiles": "CC(C)(C)NC[C@H](O)COc1nsnc1N1CCOCC1", "note": "[Timolol maleate salt]", "perinuclear lysosome accumulation": 0.369}
{"smiles": "Cc1scc2c1N(C(=O)CN1CCN(C)CC1)c1ccccc1NC2=O", "note": "[Telenzepine dihydrochloride]", "perinuclear lysosome accumulation": -0.533}
{"smiles": "Cn1c(=O)c2nc[nH]c2n(C)c1=O", "note": "[Theophylline monohydrate]", "perinuclear lysosome accumulation": -0.475}
{"smiles": "c1ccc(C2CN3CCSC3=N2)cc1", "note": "(centres undefined) [Tetramisole hydrochloride]", "perinuclear lysosome accumulation": 1.14}
{"smiles": "C=C1c2cccc(O)c2C(=O)C2=C(O)[C@]3(O)C(=O)C(C(N)=O)=C(O)[C@@H](N(C)C)[C@@H]3[C@@H](O)[C@H]12", "note": "[Methacycline hydrochloride]", "perinuclear lysosome accumulation": -0.153}
{"smiles": "CCCN[C@H]1CCc2nc(N)sc2C1", "note": "[Pramipexole]", "perinuclear lysosome accumulation": -0.407}
{"smiles": "CCOC(=O)c1ccc(OC(=O)CCCCCNC(=N)N)cc1", "note": "[Gabexate mesilate]", "perinuclear lysosome accumulation": -0.786}
{"smiles": "Cc1cc(=O)oc2cc(O)ccc12", "note": "[Hymecromone]", "perinuclear lysosome accumulation": -1.48}
{"smiles": "CCCNC(C)C(=O)Nc1ccccc1C", "note": "(centres undefined) [Prilocaine hydrochloride]", "perinuclear lysosome accumulation": -0.0327}
{"smiles": "COc1ccc(CN(CCN(C)C)c2ccccn2)cc1", "note": "[Pyrilamine maleate]", "perinuclear lysosome accumulation": -0.792}
{"smiles": "CC(COc1ccccc1)N(CCCl)Cc1ccccc1", "note": "(centres undefined) [Phenoxybenzamine hydrochloride]", "perinuclear lysosome accumulation": 2.23}
{"smiles": "CCCCC[C@H](O)/C=C/[C@@H]1[C@@H](C/C=C\\CCCC(=O)O)[C@@H](O)C[C@H]1O", "note": "[Dinoprost trometamol]", "perinuclear lysosome accumulation": -0.463}
{"smiles": "CC(=O)c1ccc(S(=O)(=O)NC(=O)NC2CCCCC2)cc1", "note": "[Acetohexamide]", "perinuclear lysosome accumulation": 1.52}
{"smiles": "O=C(O)/C=C/c1ccc(Cn2ccnc2)cc1", "note": "[Ozagrel hydrochloride]", "perinuclear lysosome accumulation": 0.757}
{"smiles": "CCCc1nc(C)c2c(=O)nc(-c3cc(S(=O)(=O)N4CCN(CC)CC4)ccc3OCC)[nH]n12", "note": "[Vardenafil]", "perinuclear lysosome accumulation": 0.161}
{"smiles": "Cc1cc(/C=C/c2ccc3cc(N(C)C)ccc3[n+]2C)c(C)n1-c1ccccc1", "note": "[Pyrvinium pamoate]", "perinuclear lysosome accumulation": 5.89}
{"smiles": "CCCCNc1ccc(C(=O)OCCOCCOCCOCCOCCOCCOCCOCCOCCOC)cc1", "note": "[Benzonatate]", "perinuclear lysosome accumulation": -0.573}
{"smiles": "COCCOC(=O)C1=C(C)NC(C)=C(C(=O)OC/C=C/c2ccccc2)C1c1cccc([N+](=O)[O-])c1", "note": "(centres undefined) [Cilnidipine]", "perinuclear lysosome accumulation": 0.646}
{"smiles": "CN(C)CCOc1ccc(/C(=C(/CCCl)c2ccccc2)c2ccccc2)cc1", "note": "[Toremifene]", "perinuclear lysosome accumulation": -1.24}
{"smiles": "CCN1CCN(C(=O)N[C@@H](C(=O)N[C@@H]2C(=O)N3C(C(=O)O)=C(CSc4nnnn4C)CS[C@H]23)c2ccc(O)cc2)C(=O)C1=O", "note": "[Cefoperazone dihydrate]", "perinuclear lysosome accumulation": 0.123}
{"smiles": "O=C(NCCO[N+](=O)[O-])c1cccnc1", "note": "[Nicorandil]", "perinuclear lysosome accumulation": 1.1}
{"smiles": "Cc1ccc(Cl)c(Nc2ccccc2C(=O)O)c1Cl", "note": "[Meclofenamic acid sodium salt monohydrate]", "perinuclear lysosome accumulation": 0.181}
{"smiles": "C=C1/C(=C\\C=C2/CCC[C@]3(C)[C@@H]([C@H](C)/C=C/[C@@H](O)C4CC4)CC[C@@H]23)C[C@@H](O)C[C@@H]1O", "note": "[Calcipotriene]", "perinuclear lysosome accumulation": 1.76}
{"smiles": "COC(=O)Nc1nc2ccc(SC(C)C)cc2[nH]1", "note": "[Methiazole]", "perinuclear lysosome accumulation": 0.454}
{"smiles": "CC1=Nc2ccc(Cl)cc2S(=O)(=O)N1", "note": "[Diazoxide]", "perinuclear lysosome accumulation": 0.0302}
{"smiles": "CC(C(=O)O)c1ccc(N2Cc3ccccc3C2=O)cc1", "note": "(centres undefined) [Indoprofen]", "perinuclear lysosome accumulation": -0.339}
{"smiles": "Oc1ccc(OCc2ccccc2)cc1", "note": "[Monobenzone]", "perinuclear lysosome accumulation": -0.646}
{"smiles": "C[C@H]1C[C@H]2[C@@H]3CCC4=CC(=O)C=C[C@]4(C)[C@@]3(F)[C@@H](O)C[C@]2(C)[C@@]1(O)C(=O)CO", "note": "[Betamethasone]", "perinuclear lysosome accumulation": -1.36}
{"smiles": "Cc1nnc(NS(=O)(=O)c2ccc(N)cc2)s1", "note": "[Sulfamethizole]", "perinuclear lysosome accumulation": 0.872}
{"smiles": "CCN1CCC[C@H]1CNC(=O)c1c(OC)ccc(Br)c1OC", "note": "[Remoxipride Hydrochloride]", "perinuclear lysosome accumulation": -2.73}
{"smiles": "CC1CC(OC(=O)C(O)c2ccccc2)CC(C)(C)N1C", "note": "(centres undefined) [Eucatropine hydrochloride]", "perinuclear lysosome accumulation": 0.0216}
{"smiles": "Cc1cnc(NC(=O)C2=C(O)c3ccccc3S(=O)(=O)N2C)s1", "note": "[Meloxicam]", "perinuclear lysosome accumulation": 0.693}
{"smiles": "O=C(O)COC(=O)Cc1ccccc1Nc1c(Cl)cccc1Cl", "note": "[Aceclofenac]", "perinuclear lysosome accumulation": -0.11}
{"smiles": "Cc1cc(CC(=O)O)n(C)c1C(=O)c1ccc(Cl)cc1", "note": "[Zomepirac sodium salt]", "perinuclear lysosome accumulation": 0.0515}
{"smiles": "CC1Cc2ccccc2N1NC(=O)c1ccc(Cl)c(S(N)(=O)=O)c1", "note": "(centres undefined) [Indapamide]", "perinuclear lysosome accumulation": -0.414}
{"smiles": "Nc1ccc(S(=O)(=O)Nc2ccnn2-c2ccccc2)cc1", "note": "[Sulfaphenazole]", "perinuclear lysosome accumulation": 1.84}
{"smiles": "O=C(NCC(O)CO)c1c(I)c(C(=O)NCC(O)CO)c(I)c(N(CCO)C(=O)CO)c1I", "note": "(centres undefined) [Ioversol]", "perinuclear lysosome accumulation": 1.35}
{"smiles": "CO/N=C(\\C(=O)N[C@@H]1C(=O)N2C(C(=O)O)=C(COC(N)=O)CS[C@H]12)c1ccco1", "note": "[Cefuroxime sodium salt]", "perinuclear lysosome accumulation": 1.27}
{"smiles": "C[C@H](O)C(=O)Nc1c(I)c(C(=O)NC(CO)CO)c(I)c(C(=O)NC(CO)CO)c1I", "note": "[Iopamidol]", "perinuclear lysosome accumulation": -3.02}
{"smiles": "CC(C)CC(=O)N[C@H](C(=O)N[C@H](C(=O)N[C@@H](CC(C)C)[C@@H](O)CC(=O)N[C@@H](C)C(=O)N[C@@H](CC(C)C)[C@@H](O)CC(=O)O)C(C)C)C(C)C", "note": "[Pepstatin A] (Isovaleryl-VV[Sta]A[Sta]-OH)", "perinuclear lysosome accumulation": 0.814}
